Reference: publication PMC6028919, “Scc2 Is a Potent Activator of Cohesin’s ATPase that Promotes Loading by Binding Scc1 without Pds5” (Molecular Cell, 2018)
These are yes or no findings as the source states them, for the method shown. In cells and extracts the contact can be indirect. Binding calls can cover weak binding; strength is not graded here.

B1: Scc1_(1-566) Δ152-256 (protein, UniProt Q12158)
chain: MVTENPQRLTVLRLATNKGPLAQIWLASNMSNIPRGSVIQTHIAESAKEIAKASGCDDESGDNEYITLRTSGELLQGIVRVYSKQATFLLTDIKDTLTKISMLFKTSQKMTSTVNRLNTVTRVHQLMLEDAVTEREVLVTPGLEFLDDTTINDDDDNSVEQGRRLGESIMSEEPTDFGFDLDIEKEAPAGNIDTITDAMTESQPKQTGTRRNSKLLNTKSIQIDEETENSESIASSNTYKEERSNNLLTPQPTNFTTKRLWSEITESMSYLPDPILKNFLSYESLKKRKIHNGREGSIEEPELNVSLNLTDDVISNAGTNDNSFNELTDNMSDFVPIDAGLNEAPFPEENIIDAKTRNEQTTIQTEKVRPTPGEVASKAIVQMAKILRKELSEEKEVIFTDVLKSQANTEPENITKREASRGFFDILSLATEGCIGLSQTEAFGNIKIDAKPALFERFINA
modifications: 35S-methionine label
B2: Scc1_(1–566) triple mutant (Δ196–203 Δ244–251 Δ281–288) (protein, UniProt Q12158)
chain: MVTENPQRLTVLRLATNKGPLAQIWLASNMSNIPRGSVIQTHIAESAKEIAKASGCDDESGDNEYITLRTSGELLQGIVRVYSKQATFLLTDIKDTLTKISMLFKTSQKMTSTVNRLNTVTRVHQLMLEDAVTEREVLVTPGLEFLDDTTIPVGLMAQENSMERKVQGAAPWDTSLEVGRRFSPDEDFEHNNLSSEGPITSKSWEEGTRQSSRNFDTHENYIQDDDFPLDDAGTIKNDQNNDDDDNSVEQGRRLGESIMSEEPTEKEAPAGNIDTITDAMTESQPKQTGTRRNSKLLNTKSIQIDEETENSESIASSNTYKEERSNNLLTPQPTNFTTKRLWSEITESMSYLPDPILKNFLSYESLKKRKIHNGREGSIEEPELNVSLNLTDDVISNAGTNDNSFNELTDNMSDFVPIDAGLNEAPFPEENIIDAKTRNEQTTIQTEKVRPTPGEVASKAIVQMAKILRKELSEEKEVIFTDVLKSQANTEPENITKREASRGFFDILSLATEGCIGLSQTEAFGNIKIDAKPALFERFINA
modifications: 35S label
B3: Scc1_(1–566) double mutant (Δ196–203 Δ244–251) (protein, UniProt Q12158)
chain: MVTENPQRLTVLRLATNKGPLAQIWLASNMSNIPRGSVIQTHIAESAKEIAKASGCDDESGDNEYITLRTSGELLQGIVRVYSKQATFLLTDIKDTLTKISMLFKTSQKMTSTVNRLNTVTRVHQLMLEDAVTEREVLVTPGLEFLDDTTIPVGLMAQENSMERKVQGAAPWDTSLEVGRRFSPDEDFEHNNLSSEGPITSKSWEEGTRQSSRNFDTHENYIQDDDFPLDDAGTIKNDQNNDDDDNSVEQGRRLGESIMSEEPTDFGFDLDIEKEAPAGNIDTITDAMTESQPKQTGTRRNSKLLNTKSIQIDEETENSESIASSNTYKEERSNNLLTPQPTNFTTKRLWSEITESMSYLPDPILKNFLSYESLKKRKIHNGREGSIEEPELNVSLNLTDDVISNAGTNDNSFNELTDNMSDFVPIDAGLNEAPFPEENIIDAKTRNEQTTIQTEKVRPTPGEVASKAIVQMAKILRKELSEEKEVIFTDVLKSQANTEPENITKREASRGFFDILSLATEGCIGLSQTEAFGNIKIDAKPALFERFINA
modifications: 35S label

Target: GST-Scc2_(171–1504) (S. cerevisiae)
Assay: pull-down; 10 μg GST-Scc2_(171-1504) on Glutathione Sepharose 4B beads; 35S-labelled in vitro translated Scc1, in the absence or presence of 10 μg ScSmc3head; 1 h at 4°C in 20 mM Tris-HCl pH 7.5, 150 mM NaCl, 0.1% Triton X-100; phosphorimager; only the target purified

Binder	binding
B1	binds
B2	binds
B3	binds
